Earlier results, collected in patent publication US11794009B2, “Devices, systems and methods for treating urological and gastrointestinal disorders by electrical stimulation of the foot” (priority 2014, dated 2023).

Tested on: irritation induced bladder overactivity
Settings: combined with foot stimulation, cats; cited from earlier work

## COc1cccc(C2(O)CCCCC2CN(C)C)c1 (stereo not shown) [Tramadol, tramadol]
  effect of tramadol on foot inhibition: synergistically enhance foot inhibition
